Experimental findings from PMC3900104 are described below.

Results are given in words; binding and its absence hold for the method and conditions named. Binding seen in cells or lysates may run through a third protein. Binding calls can cover weak binding; strength is not graded here. Sequences can lack the tags named with a protein.

This assay addresses T1, FLAG-tagged TRAK1 (trafficking-protein-Kinesin-binding-1), aa 2-953, in COS7 (human) (UniProt Q9UPV9).
T1 sequence: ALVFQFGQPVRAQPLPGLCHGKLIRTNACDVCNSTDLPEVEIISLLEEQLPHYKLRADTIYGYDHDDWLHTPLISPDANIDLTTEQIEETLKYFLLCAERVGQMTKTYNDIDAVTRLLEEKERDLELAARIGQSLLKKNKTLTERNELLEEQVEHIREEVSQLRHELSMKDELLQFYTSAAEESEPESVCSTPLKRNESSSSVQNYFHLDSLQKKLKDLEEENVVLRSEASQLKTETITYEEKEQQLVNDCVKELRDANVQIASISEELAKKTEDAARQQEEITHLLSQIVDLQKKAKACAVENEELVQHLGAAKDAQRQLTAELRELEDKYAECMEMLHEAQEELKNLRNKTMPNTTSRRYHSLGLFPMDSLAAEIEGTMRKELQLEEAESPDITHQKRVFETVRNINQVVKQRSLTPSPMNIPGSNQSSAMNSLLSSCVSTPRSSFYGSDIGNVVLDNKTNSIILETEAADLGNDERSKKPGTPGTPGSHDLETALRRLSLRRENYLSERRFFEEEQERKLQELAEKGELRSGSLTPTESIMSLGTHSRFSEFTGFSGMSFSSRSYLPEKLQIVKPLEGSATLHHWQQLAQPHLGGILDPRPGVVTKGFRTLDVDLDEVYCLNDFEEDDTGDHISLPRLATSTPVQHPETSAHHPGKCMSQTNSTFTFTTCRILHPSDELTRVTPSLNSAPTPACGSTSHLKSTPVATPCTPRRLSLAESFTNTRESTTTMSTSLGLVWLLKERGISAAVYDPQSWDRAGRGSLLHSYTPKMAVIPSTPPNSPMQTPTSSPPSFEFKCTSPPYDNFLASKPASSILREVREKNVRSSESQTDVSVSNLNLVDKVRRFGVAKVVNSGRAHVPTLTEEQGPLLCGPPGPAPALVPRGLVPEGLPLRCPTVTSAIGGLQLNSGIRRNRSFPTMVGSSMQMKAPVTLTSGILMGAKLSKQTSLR
Kind of assay: co-IP; IP of FLAG-TRAK1 from transfected cells with or without Myc-DISC1 or Myc-DISC1-37W; endogenous alpha-tubulin and Kinesin-1 detected by blot; for quantification IP buffer with 0.1% SDS (Fig. S3).

For endogenous Kinesin-1, the binding result is listed as “binds”.
